Test results: paper PMC7280298

T1: NRP2-3xFlag (NAP1-RELATED PROTEIN 2, C-terminally 3xFlag-tagged) (Arabidopsis) (UniProt Q8LC68)
T1 sequence: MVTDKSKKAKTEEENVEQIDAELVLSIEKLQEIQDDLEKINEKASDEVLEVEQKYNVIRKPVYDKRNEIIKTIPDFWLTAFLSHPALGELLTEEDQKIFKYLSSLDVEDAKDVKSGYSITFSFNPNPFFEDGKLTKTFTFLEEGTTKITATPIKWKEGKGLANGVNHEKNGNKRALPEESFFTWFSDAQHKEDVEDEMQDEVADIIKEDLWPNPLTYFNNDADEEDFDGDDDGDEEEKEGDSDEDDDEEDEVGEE

T2: NRP2-9xMyc (NAP1-RELATED PROTEIN 2, C-terminally 9xMyc-tagged) (Arabidopsis) (UniProt Q8LC68)
T2 sequence: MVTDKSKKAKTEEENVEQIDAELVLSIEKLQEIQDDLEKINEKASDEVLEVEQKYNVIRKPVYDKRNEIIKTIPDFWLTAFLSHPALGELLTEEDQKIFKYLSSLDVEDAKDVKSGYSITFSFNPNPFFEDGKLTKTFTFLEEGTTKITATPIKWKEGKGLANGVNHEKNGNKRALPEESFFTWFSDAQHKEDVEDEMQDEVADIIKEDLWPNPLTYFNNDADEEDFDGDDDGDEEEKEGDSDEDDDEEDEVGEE

B1: NAP1-RELATED PROTEIN 1 (NRP1), endogenous (protein, UniProt Q9CA59 1-256)
chain: MVADKSKKSKIEEKGEEENLEQIDAELVLSIEKLQEIQDDLEKINEKASDEVLEVEQKYNVIRKPVYDKRNEVIQSIPGFWMTAFLSHPALGDLLTEEDQKIFKYLNSLEVEDAKDVKSGYSITFHFTSNPFFEDAKLTKTFTFLEEGTTKITATPIKWKEGKGLPNGVNHDDKKGNKRALPEESFFTWFTDAQHKEDAGDEIHDEVADIIKEDLWSNPLTYFNNDADEEDFDGDDDGDEEGEEDDDDEEEEDGEE
B2: Transcriptional Factor B3 family protein (At4g31620) (protein, UniProt Q8VZQ9 1-492)
chain: MANHPLSSSRSNRPFFVRSLAGHTSNLIIPDEFFTAHLEGKTGLTKLKLTSDASDRIWDVRLNGRRFAGGWDDFSAAHCLRDDDVLVFRLDVKMVFHVTPSGRSFSQIRTSSSSGDYDSDDDDDEAGDDDSDSKNISLKKKSRFEAESSSSEKYCLLGLTASNLRLNRVSFTKHFSRANGLTKRCCMIDLMNLSGESWTLGLRHNKRTGQAFIRGRWRSFCHANELKPGSFYRFKLVRNGTRPLLQLCFKVIPQGNCSNSKANGKANVSEKYSREDGSASTKQNKFLTVTLKHYMIQSGQLRLRRSFVRENGIKEAEEIILVDKNGVEWPSYVSSSKQRREFYMAHGWIRFCEANKLKTGETFTLEFVRGEGTTPMLKFCSEAKIEQEEAPEERGTPLPKRARVSAEVGHSRRTQAPNKSSDDPKILQRKQPLQPCSFSDQAKKVKQSIVNILTGIKRFRSELELKERNLEAALLEIDALGDKVSEINKILK

How the values were obtained:
[1] = molecular target: T1, NRP2-3xFlag (NAP1-RELATED PROTEIN 2, C-terminally 3xFlag-tagged) (Arabidopsis); test: affinity purification with mass spectrometry; NRP2-3xFlag from young inflorescences held on FLAG M2 magnetic beads, 4 °C 2 h, IP buffer (50 mM Tris pH 7.6, 150 mM NaCl, 5 mM MgCl2, 10% glycerol, 0.1% NP-40), eluted with 3X FLAG peptides; Columbia plants as negative control
[2] = molecular target: T2, NRP2-9xMyc (NAP1-RELATED PROTEIN 2, C-terminally 9xMyc-tagged) (Arabidopsis); test: affinity purification with mass spectrometry; NRP2-9xMyc from young inflorescences held on streptavidin-coupled magnetic beads, 1 h at 4 °C, IP buffer, released by 3C cleavage overnight; three replicates; Columbia plants as negative control

Row | Binder | binding [1] | binding [2]
1 | B1 | binds | binds
2 | B2 | binds | binds

No constants are given. Whether binding was seen depends on the method and setting. Binding seen in cells or lysates may run through a third protein. A yes stands for co-enrichment or nearness to the bait. Other partners may have been found. Sequences can lack the tags named with a protein.
